# According to patent US20240425491A1, “HETEROARYL COMPOUNDS USEFUL IN THE TREATMENT OF COGNITIVE DISORDERS” (University College Cardiff Consultants Limited, priority 2021, published 2024):
# Sequences of proteins named here, by UniProt entry; tags and fusion partners are left off. Residues count along the entry.
# UniProt P18507, 40-475: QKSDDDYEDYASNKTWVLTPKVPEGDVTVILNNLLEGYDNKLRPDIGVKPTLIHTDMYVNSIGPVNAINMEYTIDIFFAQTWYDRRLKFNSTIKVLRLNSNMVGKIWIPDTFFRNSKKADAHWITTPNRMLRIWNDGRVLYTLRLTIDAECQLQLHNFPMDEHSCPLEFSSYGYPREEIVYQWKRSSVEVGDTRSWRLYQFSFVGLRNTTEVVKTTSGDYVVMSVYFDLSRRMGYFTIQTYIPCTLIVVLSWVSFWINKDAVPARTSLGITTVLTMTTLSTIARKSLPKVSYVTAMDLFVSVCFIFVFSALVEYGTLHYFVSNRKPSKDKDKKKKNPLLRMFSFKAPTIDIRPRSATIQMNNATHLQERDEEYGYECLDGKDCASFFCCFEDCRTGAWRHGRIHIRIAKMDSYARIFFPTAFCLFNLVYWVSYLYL
# UniProt P31644, 32-462: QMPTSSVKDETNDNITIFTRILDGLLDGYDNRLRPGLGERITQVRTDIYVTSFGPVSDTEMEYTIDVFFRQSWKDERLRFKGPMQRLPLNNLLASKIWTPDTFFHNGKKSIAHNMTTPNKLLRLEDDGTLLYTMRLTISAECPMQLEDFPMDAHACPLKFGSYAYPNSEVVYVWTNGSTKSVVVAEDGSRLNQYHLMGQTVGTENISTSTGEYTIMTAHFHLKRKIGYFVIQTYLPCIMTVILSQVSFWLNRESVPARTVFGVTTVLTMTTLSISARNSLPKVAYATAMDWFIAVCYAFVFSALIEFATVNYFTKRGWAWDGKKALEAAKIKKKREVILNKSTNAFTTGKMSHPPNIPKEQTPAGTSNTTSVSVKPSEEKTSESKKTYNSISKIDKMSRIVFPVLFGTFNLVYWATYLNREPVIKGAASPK
# At least one structure is not confirmed: it was looked up by name or label, or the drawing left a doubt.
# What was measured:
# [1] = target: T1, human α5β3γ2L GABAA receptors in HEK293 cells (Homo sapiens, UniProt P18507+P31644); test: In vitro electrophysiological recording assay (α5-GABAAR relative efficacy), SyncroPatch; type: cell-based; conditions: Conc 0.1 μM; GABA EC10-20
# T1 construct: expressed in transfected cells
# Source text: (§1) Mouse L(tk^−) cells stably expressing human α1β3γ2, α2β3γ2, α3β3γ2, α5β3γ2 GABAARs generated by transfection of the individual subunits in the dexamethasone-inducible expression vector pMSGneo in mouse L(tk^−) cells (Hadingham et al., 1993, Mol. Pharmacol. 43:970-975 and 1993, Mol. Pharmacol. 44:1211-1218) were used for binding and functional assays. For certain compounds, HEK293 cells stable expressing the human α1β3γ2L, α2β3γ2L, α3β3γ2L and α5β3γ2L GABAA receptors were used to evaluate their functional effects in a SyncroPatch electrophysiology assay.
# (§2) The efficacy of modulators was evaluated using either the automated patch-clamp platform QPatch16 (Sophion, Copenhagen, Denmark) or the SyncroPatch 384i (Nanion Technologies, Germany). […]
# For the Syncropatch recordings, a stacked addition protocol was used, in which GABA was rapidly applied and then washed off from the cell. […] The currents recorded were acquired at 2 kHz and filtered using a Bessel filter. Whole-cell currents were measured at a holding potential of −80 mV. […]
# (§3) The effects of modulators were evaluated in the presence of a submaximal GABA concentration, giving typically 10-20% activation (GABA EC10-20) of the response elicited by a saturating GABA concentration. […]
# The % efficacy of modulators was determined from the GABA elicited currents recorded in the presence and absence of the test compound, using the formula: […]
# [2] = target: T2, human α5β3γ2 GABAARs in mouse L(tk−) cells (Homo sapiens, UniProt P18507+P31644); test: In vitro electrophysiological recording assay (α5-GABAAR relative efficacy), QPatch; type: cell-based; conditions: Conc 1 μM; GABA EC10-20
# T2 construct: expressed in transfected cells; host or cells: mouse L(tk−) cells, dexamethasone-inducible vector pMSGneo
# Source text: as §1, with “assay. […]” for “assay.”
# as §2
# For QPatch recordings, all experiments were carried out at room temperature (20-22° C.) using a standard whole cell procedure and physiological solutions. […] The currents recorded were acquired at 1 KHz and filtered at 0.3 KHz using a Bessel filter. Whole-cell currents were measured at a holding potential of −65 mV. […]
# as §3
structure (smiles),measurement,setting,value
"COc1nc(-c2ccc(CN)cc2)ccc1NC(=O)c1c(-c2ccccc2)noc1C.Cl [Example 182, N-[6-[4-(Aminomethyl)phenyl]-2-methoxy-3-pyridyl]-5-methyl-3-phenyl-isoxazole-4-carboxamide hydrochloride]","α5-GABAAR Relative Efficacy (to DMCM), SyncroPatch",[1],−0.17
same,"α5-GABAAR Relative Efficacy (to DMCM), Qpatch",[2],−0.53
